# Assay results: the supplement of paper PMC12819154, “High-throughput peptide-centric local stability assay extends protein–ligand identification to membrane proteins, tissues and bacteria” (Nature Structural & Molecular Biology, 2025)
# Amino acid sequences for entries named in this document (tags omitted). A change or cut given only in a name is not applied to a line headed by its entry.
# UniProt Q9UM13, whole entry: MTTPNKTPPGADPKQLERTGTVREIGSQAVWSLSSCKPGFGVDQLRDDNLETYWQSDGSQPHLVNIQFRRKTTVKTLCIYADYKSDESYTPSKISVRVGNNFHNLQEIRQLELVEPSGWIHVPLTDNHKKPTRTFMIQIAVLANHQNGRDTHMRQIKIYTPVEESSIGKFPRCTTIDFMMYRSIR
# UniProt Q9UKT4: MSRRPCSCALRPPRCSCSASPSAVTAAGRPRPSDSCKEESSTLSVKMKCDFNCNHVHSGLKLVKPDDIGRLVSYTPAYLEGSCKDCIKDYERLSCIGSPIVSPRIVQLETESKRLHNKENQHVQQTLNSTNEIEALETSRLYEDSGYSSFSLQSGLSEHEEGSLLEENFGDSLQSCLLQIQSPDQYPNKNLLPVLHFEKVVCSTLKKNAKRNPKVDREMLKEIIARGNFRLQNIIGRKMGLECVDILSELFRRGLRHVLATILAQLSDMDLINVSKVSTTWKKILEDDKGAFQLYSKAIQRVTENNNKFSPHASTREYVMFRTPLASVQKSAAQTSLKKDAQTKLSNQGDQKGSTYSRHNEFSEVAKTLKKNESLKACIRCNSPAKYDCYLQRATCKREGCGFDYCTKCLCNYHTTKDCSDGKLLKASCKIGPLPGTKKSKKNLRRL
# UniProt Q9Y2K3: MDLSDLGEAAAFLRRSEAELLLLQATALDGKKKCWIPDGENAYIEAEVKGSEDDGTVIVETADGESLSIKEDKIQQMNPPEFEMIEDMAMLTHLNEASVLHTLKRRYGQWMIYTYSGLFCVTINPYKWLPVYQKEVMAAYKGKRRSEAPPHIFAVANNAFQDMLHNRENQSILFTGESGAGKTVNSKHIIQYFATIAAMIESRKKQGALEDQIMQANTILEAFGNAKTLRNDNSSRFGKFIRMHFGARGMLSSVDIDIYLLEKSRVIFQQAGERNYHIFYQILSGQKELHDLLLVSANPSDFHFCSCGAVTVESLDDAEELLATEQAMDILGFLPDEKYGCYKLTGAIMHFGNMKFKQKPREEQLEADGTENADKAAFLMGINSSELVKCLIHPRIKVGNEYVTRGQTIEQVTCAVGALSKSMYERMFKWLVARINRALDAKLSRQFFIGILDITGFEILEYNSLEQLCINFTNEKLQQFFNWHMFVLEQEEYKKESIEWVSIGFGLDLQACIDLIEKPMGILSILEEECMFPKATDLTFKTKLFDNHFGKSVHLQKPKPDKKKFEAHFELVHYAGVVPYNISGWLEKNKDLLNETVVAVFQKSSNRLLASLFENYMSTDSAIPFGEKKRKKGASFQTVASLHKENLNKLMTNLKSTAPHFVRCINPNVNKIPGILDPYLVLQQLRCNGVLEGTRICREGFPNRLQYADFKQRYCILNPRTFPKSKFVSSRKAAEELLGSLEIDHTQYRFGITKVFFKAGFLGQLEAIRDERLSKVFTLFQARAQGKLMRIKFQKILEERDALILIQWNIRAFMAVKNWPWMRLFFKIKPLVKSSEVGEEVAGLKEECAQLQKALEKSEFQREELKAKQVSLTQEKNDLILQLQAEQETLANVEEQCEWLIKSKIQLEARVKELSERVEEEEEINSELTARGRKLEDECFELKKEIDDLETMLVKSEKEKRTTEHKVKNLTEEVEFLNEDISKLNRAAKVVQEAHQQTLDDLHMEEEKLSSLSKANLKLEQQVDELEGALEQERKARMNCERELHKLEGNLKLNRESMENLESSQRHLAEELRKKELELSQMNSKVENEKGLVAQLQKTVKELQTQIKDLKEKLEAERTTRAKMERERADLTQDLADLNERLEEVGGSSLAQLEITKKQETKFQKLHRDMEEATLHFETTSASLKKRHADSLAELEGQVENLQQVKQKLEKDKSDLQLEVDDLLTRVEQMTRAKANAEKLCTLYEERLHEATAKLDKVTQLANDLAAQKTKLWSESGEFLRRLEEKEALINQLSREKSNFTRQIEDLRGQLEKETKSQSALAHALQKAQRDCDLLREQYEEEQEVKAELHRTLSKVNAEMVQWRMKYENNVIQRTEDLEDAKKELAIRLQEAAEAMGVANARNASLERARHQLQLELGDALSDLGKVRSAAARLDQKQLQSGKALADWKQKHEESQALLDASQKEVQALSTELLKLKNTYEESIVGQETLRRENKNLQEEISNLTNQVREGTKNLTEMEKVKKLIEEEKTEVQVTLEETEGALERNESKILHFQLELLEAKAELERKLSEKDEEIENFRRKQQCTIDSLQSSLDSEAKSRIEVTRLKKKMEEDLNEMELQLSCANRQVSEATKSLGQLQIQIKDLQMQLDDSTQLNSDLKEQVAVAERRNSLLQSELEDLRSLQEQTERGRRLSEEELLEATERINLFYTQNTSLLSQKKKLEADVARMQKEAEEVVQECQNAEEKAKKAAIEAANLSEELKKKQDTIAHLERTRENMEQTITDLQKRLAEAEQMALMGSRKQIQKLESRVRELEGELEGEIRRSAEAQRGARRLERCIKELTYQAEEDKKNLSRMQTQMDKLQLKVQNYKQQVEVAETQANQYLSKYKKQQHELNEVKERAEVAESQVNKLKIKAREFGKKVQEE
# UniProt Q9Y2Q3: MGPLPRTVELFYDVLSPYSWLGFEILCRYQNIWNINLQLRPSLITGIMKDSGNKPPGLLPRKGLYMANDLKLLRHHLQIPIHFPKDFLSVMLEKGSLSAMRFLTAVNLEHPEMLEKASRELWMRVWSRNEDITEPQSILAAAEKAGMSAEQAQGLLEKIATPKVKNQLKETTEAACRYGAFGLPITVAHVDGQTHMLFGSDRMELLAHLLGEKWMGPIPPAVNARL
# UniProt Q9Y2D8: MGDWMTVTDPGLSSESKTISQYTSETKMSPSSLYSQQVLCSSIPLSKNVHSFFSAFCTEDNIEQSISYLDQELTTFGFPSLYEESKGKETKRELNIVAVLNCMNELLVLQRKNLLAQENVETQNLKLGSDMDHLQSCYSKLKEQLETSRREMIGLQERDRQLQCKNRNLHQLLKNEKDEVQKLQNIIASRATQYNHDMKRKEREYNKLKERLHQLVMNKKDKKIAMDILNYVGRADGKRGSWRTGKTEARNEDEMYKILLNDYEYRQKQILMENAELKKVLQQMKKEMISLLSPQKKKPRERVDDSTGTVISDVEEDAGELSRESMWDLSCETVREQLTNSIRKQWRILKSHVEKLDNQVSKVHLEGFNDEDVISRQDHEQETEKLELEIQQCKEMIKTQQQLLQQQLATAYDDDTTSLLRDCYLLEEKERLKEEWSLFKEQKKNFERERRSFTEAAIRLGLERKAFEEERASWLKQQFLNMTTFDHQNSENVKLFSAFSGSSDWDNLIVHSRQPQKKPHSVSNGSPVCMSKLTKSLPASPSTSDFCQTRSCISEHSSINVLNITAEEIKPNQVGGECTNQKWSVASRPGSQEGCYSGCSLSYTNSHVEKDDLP
# UniProt Q9Y2B0: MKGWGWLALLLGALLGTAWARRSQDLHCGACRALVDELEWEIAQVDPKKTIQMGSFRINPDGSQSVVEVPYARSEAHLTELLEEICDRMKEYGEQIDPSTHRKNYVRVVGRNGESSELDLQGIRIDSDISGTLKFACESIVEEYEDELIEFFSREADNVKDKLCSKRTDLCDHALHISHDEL
# UniProt Q9UPN4: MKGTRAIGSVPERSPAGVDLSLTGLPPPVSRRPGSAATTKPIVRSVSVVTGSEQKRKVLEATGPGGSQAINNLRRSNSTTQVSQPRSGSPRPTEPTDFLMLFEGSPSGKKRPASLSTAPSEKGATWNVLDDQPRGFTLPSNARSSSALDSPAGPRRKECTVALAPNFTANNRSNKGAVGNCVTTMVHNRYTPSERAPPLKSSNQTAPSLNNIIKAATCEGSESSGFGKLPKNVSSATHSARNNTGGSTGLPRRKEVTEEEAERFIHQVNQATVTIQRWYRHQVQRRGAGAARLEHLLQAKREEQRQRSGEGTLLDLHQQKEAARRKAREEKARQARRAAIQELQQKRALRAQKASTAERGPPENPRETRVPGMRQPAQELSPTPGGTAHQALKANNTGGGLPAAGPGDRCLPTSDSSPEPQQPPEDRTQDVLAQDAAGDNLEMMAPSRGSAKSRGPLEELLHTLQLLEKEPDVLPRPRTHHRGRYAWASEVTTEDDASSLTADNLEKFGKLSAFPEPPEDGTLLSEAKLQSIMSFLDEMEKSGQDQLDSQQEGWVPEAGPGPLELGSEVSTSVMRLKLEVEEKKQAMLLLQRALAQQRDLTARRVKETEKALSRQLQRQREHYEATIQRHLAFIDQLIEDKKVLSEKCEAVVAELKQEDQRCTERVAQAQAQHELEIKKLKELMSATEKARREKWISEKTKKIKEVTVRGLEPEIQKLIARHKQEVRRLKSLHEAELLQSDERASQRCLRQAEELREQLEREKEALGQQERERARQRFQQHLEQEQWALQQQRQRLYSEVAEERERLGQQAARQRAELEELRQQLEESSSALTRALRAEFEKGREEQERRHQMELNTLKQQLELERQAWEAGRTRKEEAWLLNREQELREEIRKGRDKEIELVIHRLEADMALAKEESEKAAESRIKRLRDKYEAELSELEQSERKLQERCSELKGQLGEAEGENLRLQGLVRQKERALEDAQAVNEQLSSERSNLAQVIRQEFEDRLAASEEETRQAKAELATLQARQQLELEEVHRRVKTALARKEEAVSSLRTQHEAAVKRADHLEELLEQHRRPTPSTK
# UniProt Q9ULX6: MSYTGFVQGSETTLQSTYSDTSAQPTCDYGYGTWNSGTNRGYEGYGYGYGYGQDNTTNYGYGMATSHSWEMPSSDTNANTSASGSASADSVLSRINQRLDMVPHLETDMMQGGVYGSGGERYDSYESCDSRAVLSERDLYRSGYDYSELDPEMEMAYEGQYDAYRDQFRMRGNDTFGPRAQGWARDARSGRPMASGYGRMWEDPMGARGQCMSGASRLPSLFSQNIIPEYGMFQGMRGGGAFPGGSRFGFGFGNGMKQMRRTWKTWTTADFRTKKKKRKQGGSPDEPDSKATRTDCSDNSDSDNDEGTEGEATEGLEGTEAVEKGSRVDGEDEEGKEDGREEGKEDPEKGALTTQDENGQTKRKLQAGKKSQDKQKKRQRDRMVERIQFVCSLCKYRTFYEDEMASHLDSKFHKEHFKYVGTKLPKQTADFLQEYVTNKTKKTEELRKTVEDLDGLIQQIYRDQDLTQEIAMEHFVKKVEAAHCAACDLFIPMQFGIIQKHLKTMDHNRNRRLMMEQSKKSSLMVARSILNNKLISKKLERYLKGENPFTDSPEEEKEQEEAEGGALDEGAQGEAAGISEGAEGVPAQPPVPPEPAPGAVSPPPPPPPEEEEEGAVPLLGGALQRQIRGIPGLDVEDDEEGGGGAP
# UniProt Q9ULU4: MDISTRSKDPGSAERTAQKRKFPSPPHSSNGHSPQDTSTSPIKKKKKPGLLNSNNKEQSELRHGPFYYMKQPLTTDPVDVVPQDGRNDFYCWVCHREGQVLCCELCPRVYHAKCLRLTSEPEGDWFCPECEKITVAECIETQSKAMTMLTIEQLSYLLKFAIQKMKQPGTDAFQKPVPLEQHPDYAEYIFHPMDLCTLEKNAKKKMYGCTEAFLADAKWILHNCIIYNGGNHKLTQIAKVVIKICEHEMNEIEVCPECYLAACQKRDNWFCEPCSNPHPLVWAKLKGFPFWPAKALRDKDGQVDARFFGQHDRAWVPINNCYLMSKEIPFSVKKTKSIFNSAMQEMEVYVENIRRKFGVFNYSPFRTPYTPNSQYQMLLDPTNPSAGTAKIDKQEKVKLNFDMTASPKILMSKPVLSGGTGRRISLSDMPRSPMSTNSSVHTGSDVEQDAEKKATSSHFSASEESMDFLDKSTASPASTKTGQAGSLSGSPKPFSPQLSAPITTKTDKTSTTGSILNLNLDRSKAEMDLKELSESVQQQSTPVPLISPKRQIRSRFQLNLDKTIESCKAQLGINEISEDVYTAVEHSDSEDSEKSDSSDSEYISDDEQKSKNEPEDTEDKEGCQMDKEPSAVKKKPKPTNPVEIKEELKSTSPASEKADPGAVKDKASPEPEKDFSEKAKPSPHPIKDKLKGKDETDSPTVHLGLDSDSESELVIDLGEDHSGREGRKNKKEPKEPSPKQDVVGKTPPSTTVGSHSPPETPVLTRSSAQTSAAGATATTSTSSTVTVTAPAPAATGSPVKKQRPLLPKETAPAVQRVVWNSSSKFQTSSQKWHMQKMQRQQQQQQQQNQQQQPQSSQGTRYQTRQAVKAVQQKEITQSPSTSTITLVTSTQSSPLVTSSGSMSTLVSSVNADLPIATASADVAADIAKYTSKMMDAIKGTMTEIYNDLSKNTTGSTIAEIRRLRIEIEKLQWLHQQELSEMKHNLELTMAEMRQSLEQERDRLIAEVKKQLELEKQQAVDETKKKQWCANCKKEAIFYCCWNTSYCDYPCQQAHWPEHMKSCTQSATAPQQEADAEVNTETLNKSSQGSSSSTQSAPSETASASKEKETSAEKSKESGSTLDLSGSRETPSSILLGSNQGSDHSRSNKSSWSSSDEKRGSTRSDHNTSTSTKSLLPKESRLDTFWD
# Some of the results follow. Small differences around the control level are noise.
# Compound: CN[C@@H]1C[C@H]2O[C@@](C)([C@@H]1OC)n1c3ccccc3c3c4c(c5c6ccccc6n2c5c31)C(=O)NC4 [staurosporine]
# Assay: log2 fold change of tryptic peptide abundance, ligand vs vehicle (limited proteolysis) (log2 ratio); higher = more trypsin-susceptible (destabilized)
# Settings: ligand concentration: 20 uM; sample: K562 cleared lysate; digestion: 4 min, 22 C (HT-PELSA RT4min, Orbitrap Astral)
row,Target,log2 fold change
1,"UniProt Q9Y320 (peptide sequence: YNCTGLNFGK, peptide start residue: 184)",0.368
2,"ANAPC10 (peptide sequence: CTTIDFMMYR, peptide start residue: 173) (UniProt Q9UM13)",-0.159
3,"FBXO5 (peptide sequence: EGCGFDYCTKCLCNYHTTK, peptide start residue: 399) (UniProt Q9UKT4)",-1.3
4,"MYH15 (peptide sequence: LFDNHFGK, peptide start residue: 564) (UniProt Q9Y2K3)",0.372
5,"USP24 (peptide sequence: LMPTADDDMAR, peptide start residue: 1185) (UniProt Q9UPU5)",0.397
6,"UniProt Q9UQ88 (peptide sequence: FLTYFPGR, peptide start residue: 703)",-0.28
7,"EXOSC1 (peptide sequence: ETESQLLPDVGAIVTCK, peptide start residue: 58) (UniProt Q9Y3B2)",0.108
8,"MED23 (peptide sequence: FLPVFDIVIHR, peptide start residue: 963) (UniProt Q9ULK4)",-0.489
9,"GSTK1 (peptide sequence: MELLAHLLGEK, peptide start residue: 203) (UniProt Q9Y2Q3)",0.281
10,"SSX2IP (peptide sequence: VHLEGFNDEDVISR, peptide start residue: 363) (UniProt Q9Y2D8)",-0.287
11,"CNPY2 (peptide sequence: ALVDELEWEIAQVDPKK, peptide start residue: 33) (UniProt Q9Y2B0)",0.238
12,"UniProt Q9UPN4 (peptide sequence: EIELVIHR, peptide start residue: 899)",1.09
13,"UniProt Q9Y2J8 (peptide sequence: YIHILGR, peptide start residue: 226)",0.0692
14,"AKAP8L (peptide sequence: GNDTFGPR, peptide start residue: 172) (UniProt Q9ULX6)",-0.162
15,"ZMYND8 (peptide sequence: ETAPAVQR, peptide start residue: 809) (UniProt Q9ULU4)",-0.164
16,"KMT2B (peptide sequence: ATSLELPMAMR, peptide start residue: 2555) (UniProt Q9UMN6)",0.286

# 2 entries drawn at random from the list so far:
row,Target,log2 fold change
11,"CNPY2 (peptide sequence: ALVDELEWEIAQVDPKK, peptide start residue: 33) (UniProt Q9Y2B0)",0.238
6,"UniProt Q9UQ88 (peptide sequence: FLTYFPGR, peptide start residue: 703)",-0.28
